According to article PMC8534798:
Results are given in words; binding and its absence hold for the method and conditions named. In cells and extracts the contact can be indirect. Some binding calls cover weakened binding; strength is not graded here. Tags and fused reporters may be left off the sequences shown.

Chains of the proteins cited; added tags and fusions are not shown.
UniProt P84022: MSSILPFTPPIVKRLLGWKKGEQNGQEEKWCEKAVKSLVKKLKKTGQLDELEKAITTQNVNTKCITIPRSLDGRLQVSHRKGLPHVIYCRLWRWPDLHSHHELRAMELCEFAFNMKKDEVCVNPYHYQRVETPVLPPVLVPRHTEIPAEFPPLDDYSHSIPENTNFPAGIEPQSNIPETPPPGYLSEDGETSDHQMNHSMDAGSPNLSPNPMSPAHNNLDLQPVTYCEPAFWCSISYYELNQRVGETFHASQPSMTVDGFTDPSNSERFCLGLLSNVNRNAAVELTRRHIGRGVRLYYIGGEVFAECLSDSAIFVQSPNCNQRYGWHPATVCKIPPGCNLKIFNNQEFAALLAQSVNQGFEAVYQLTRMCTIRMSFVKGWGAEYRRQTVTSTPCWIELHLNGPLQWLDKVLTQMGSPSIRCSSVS
UniProt Q15796: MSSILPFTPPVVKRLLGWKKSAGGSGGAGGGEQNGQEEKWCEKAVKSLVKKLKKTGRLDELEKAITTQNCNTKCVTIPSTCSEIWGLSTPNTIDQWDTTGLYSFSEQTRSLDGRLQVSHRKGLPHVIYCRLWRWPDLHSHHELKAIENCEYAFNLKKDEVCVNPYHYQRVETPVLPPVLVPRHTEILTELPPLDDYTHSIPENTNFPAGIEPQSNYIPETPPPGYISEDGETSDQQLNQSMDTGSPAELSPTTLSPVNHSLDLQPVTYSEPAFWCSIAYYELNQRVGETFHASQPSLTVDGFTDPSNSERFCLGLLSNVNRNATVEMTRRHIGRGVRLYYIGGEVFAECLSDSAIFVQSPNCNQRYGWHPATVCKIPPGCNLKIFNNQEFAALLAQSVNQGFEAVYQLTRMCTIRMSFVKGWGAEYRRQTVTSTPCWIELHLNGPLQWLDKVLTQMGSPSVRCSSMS

How the values were obtained:
[1] = target: HA-Smad3 (wild type) (human) (UniProt P84022); experiment: co-IP; Xenopus embryos co-injected with Flag-foxd4l1.1 and HA-smad2/HA-smad3 mRNA at the one-cell stage, harvested at stage 10.5 or 11; cleared lysates incubated overnight at 4 °C with anti-HA, protein A/G beads; Western blot with anti-Flag
[2] = target: HA-Smad2 (wild type) (human) (UniProt Q15796); experiment: as above

B1: Flag-Foxd4l1.1 (protein, UniProt Q9PRJ8 1-352)
chain: MSFSQESGAHHHPQDYAGLSDEEDEIDILGEDDPCSLKSHFYLQPTHSVMGDSEMLSPSKLSCTESESDSSGESEGGTSKDSSTTPTGSKAKRTLVKPPYSYIALITMAILQSPHKKLTLSGICDFISSKFPYYKDKFPAWQNSIRHNLSLNDCFIKIPREPGNPGKGNYWTLDPASEDMFDNGSFLRRRKRFKRHQQEFFKDGLMMYNSLPYYRPYSAIQPQPVLQQTSLTCMAIPETLPMSTHLAPYPDIKRKVSYPAQGVHRGFKAQDADNHPNNSQSKCSFSIENIMRKPKEPEPNIQSFNSHWNYNHVFQRPSSCLLPAVLNLSTGPLLANTQGARQYNLIQFPGCY
- binding [1]: binds
- binding [2]: binds
